The test has as its target Rhotekin Rho-binding domain agarose beads (RhoA Assay Reagent) (UniProt Q9BST9). Put plainly: pull-down; Rhotekin RBD agarose beads (12 µl) mixed with 500 µg lysate of ST88-14 or STS-26T cells with or without doxycycline-induced DN R-Ras; bound RhoA detected by blot; only the target purified.

By UniProt entry, the sequences of proteins in these tests, tags left out. Where a name states a change or a piece, a line headed by the entry shows the natural chain unless it says otherwise.
UniProt Q9BST9: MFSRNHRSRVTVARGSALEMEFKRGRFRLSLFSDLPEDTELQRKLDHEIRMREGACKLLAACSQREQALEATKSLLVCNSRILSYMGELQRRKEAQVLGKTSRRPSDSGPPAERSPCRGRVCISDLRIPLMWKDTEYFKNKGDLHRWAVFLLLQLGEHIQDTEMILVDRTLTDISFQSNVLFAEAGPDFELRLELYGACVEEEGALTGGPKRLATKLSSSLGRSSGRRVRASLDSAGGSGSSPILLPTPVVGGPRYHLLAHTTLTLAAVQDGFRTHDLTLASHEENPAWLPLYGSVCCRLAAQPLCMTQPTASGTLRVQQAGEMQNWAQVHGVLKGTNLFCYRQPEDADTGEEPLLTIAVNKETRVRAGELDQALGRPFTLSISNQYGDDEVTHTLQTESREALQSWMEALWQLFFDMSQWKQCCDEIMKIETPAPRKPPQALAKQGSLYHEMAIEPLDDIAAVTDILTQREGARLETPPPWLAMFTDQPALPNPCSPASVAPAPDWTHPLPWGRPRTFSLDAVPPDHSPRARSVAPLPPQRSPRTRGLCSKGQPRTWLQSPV
UniProt P61586: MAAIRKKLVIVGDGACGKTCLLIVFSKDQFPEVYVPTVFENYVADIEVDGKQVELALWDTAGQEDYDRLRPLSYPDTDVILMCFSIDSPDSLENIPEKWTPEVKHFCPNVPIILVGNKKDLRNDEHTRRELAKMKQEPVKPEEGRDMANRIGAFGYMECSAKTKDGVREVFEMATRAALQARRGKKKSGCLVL

No constants are given. Whether binding was seen depends on the method and setting. Binding seen in cells or lysates may run through a third protein. A result given as binding can be weak or reduced; the word gives no strength.

With RhoA (from UniProt P61586 1-193), the binding result is listed as “binds”.

The values above are taken from paper PMC8447793.
